Results from the supplement of paper PMC10849652.
The other results are listed elsewhere or left out.

Protein sequences, listed by entry. Tags and fused reporters are not part of them. Lines headed by an entry give the natural chain unless they say otherwise; changes in a name come on top.
UniProt Q86SQ9: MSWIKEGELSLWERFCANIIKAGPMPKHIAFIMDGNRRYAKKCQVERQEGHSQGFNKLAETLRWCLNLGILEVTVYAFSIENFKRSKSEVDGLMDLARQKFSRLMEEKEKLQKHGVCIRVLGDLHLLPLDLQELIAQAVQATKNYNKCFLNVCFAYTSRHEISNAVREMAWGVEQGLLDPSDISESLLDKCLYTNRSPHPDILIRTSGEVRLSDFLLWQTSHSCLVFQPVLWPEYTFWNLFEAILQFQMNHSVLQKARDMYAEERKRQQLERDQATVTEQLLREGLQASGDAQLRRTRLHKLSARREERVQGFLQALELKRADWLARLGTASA
UniProt P26196: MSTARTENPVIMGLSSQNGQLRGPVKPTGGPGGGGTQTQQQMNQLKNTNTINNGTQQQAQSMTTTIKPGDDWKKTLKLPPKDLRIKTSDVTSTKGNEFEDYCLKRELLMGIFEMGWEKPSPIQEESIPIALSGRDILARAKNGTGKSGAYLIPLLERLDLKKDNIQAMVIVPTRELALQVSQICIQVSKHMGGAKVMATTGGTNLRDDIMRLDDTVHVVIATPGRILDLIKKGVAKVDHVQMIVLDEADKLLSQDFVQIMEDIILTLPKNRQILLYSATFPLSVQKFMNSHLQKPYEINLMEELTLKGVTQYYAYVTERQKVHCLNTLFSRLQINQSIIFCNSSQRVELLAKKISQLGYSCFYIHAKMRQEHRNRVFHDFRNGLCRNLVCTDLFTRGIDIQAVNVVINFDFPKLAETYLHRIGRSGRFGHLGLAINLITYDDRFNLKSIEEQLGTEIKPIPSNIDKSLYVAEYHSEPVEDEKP
UniProt Q9UHI6: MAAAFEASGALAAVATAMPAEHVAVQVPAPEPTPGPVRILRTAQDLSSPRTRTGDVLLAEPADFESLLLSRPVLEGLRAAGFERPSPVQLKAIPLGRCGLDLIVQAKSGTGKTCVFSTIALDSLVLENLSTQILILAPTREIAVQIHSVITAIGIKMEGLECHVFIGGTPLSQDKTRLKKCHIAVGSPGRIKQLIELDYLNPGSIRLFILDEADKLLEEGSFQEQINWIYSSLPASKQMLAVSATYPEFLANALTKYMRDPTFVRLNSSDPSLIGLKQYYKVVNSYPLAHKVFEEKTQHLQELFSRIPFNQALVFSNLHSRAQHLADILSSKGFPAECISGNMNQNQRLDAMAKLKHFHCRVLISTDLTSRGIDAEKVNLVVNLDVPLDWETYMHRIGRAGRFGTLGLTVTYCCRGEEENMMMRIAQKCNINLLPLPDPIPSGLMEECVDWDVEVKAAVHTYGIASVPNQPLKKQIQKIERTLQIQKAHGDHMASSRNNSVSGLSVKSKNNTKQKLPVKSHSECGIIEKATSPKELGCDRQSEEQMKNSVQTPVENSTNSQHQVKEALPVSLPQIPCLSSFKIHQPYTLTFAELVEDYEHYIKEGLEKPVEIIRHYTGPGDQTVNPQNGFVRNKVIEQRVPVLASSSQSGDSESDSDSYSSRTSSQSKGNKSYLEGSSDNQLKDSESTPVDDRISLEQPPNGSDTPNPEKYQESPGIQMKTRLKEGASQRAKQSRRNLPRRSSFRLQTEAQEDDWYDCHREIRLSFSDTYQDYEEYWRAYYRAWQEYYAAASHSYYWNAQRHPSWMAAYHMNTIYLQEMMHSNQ
UniProt Q13268: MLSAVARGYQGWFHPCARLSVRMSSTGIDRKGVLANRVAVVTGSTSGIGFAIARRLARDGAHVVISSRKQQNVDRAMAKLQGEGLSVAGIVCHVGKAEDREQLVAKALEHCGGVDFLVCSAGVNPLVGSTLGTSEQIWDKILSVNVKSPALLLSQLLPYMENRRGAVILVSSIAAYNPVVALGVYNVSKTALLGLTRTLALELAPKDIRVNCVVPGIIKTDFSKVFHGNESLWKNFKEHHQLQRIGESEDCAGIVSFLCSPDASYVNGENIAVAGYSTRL
UniProt O00273: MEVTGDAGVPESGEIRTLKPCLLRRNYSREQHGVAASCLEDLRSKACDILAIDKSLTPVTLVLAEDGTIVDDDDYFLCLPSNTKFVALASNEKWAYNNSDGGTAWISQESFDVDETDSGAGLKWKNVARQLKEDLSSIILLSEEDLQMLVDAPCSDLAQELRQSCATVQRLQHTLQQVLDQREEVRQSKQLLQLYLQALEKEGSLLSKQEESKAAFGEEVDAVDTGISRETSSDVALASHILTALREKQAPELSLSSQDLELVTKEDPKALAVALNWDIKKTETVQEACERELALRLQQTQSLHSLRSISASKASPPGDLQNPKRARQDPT
UniProt Q6P3S1: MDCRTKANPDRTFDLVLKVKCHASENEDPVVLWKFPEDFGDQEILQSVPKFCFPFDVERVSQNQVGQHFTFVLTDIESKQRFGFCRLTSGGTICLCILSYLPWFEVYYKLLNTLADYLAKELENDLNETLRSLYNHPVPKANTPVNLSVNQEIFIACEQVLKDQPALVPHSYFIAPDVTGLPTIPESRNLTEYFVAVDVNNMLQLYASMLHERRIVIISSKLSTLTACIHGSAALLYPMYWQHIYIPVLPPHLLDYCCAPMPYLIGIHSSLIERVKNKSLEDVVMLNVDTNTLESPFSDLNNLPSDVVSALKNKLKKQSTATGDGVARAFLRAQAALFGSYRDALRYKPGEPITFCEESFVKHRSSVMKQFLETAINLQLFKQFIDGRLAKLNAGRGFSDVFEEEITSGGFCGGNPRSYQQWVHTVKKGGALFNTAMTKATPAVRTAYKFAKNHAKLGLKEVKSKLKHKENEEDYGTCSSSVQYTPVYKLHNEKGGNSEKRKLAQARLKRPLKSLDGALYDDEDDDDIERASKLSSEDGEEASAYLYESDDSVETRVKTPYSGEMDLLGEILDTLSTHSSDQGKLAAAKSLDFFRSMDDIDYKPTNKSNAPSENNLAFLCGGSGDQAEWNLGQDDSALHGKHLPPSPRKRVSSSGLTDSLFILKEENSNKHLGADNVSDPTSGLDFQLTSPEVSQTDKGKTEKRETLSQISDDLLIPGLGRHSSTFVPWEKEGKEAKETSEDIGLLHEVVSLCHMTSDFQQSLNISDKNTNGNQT
UniProt Q9NUU7: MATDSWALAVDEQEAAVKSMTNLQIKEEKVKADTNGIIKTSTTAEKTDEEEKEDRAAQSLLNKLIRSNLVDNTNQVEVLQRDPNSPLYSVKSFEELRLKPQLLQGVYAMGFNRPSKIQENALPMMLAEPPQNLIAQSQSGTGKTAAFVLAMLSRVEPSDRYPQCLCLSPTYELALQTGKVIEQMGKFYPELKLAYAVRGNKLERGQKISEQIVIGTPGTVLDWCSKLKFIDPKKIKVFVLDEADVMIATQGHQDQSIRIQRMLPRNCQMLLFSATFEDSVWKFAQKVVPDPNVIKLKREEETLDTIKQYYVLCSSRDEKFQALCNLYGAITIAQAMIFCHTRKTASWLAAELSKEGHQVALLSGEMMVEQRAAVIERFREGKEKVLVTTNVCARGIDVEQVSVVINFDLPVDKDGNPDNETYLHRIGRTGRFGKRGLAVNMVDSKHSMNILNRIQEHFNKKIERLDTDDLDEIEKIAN
UniProt Q9UPY3: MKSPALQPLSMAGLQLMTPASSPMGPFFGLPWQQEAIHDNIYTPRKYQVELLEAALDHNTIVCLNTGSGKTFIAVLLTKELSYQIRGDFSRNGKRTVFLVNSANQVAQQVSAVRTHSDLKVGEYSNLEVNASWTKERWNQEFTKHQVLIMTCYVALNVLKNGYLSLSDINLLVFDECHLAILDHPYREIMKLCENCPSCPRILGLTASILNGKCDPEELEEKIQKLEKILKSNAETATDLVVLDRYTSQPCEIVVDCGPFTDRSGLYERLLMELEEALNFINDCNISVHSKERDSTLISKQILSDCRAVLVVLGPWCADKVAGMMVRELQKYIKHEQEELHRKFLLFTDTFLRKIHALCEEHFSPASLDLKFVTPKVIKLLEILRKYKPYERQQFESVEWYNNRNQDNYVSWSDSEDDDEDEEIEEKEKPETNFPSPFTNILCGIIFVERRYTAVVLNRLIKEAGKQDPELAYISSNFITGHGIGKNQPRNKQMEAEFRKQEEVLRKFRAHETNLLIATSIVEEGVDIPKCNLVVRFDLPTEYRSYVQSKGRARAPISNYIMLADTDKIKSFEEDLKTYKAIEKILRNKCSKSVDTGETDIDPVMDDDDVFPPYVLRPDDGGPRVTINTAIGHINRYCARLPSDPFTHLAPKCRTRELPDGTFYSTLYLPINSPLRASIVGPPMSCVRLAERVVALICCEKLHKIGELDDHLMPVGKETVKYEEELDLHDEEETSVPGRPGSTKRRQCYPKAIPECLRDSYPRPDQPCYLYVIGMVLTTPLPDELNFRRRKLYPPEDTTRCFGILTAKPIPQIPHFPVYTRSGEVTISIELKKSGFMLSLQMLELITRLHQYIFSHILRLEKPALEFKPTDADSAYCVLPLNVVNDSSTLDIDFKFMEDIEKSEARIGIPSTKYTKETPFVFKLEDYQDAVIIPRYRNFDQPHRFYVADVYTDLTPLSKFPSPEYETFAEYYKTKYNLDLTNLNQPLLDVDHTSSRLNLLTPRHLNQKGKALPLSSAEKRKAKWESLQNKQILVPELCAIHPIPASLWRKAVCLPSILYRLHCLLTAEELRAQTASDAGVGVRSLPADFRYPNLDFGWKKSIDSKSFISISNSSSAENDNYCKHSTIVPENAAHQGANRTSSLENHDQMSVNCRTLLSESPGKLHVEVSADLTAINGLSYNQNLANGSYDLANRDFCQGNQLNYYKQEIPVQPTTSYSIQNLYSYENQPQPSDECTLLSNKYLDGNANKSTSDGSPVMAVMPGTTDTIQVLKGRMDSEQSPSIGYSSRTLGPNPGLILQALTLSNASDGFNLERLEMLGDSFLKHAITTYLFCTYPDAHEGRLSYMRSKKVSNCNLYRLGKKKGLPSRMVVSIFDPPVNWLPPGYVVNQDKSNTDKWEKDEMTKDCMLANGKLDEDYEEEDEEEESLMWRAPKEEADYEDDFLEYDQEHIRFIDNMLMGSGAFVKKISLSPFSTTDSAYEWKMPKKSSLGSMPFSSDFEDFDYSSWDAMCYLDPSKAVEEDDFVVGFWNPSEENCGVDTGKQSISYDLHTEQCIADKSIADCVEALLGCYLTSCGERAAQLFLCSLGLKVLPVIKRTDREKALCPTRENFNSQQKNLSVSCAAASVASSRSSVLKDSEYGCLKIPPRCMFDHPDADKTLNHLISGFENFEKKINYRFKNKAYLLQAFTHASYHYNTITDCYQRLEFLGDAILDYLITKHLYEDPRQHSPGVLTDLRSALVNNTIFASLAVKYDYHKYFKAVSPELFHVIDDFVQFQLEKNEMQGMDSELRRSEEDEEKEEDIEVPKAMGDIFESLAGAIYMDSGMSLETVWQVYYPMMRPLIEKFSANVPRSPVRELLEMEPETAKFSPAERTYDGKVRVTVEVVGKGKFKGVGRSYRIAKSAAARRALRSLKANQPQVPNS
UniProt Q16854: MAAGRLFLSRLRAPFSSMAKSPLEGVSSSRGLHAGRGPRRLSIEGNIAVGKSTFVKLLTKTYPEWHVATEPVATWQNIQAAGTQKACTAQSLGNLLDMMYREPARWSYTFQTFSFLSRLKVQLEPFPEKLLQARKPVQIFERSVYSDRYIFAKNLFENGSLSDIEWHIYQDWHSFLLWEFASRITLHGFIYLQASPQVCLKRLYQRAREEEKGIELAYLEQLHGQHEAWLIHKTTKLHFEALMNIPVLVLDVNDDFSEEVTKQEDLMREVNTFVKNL
UniProt Q15700, whole entry, looked up: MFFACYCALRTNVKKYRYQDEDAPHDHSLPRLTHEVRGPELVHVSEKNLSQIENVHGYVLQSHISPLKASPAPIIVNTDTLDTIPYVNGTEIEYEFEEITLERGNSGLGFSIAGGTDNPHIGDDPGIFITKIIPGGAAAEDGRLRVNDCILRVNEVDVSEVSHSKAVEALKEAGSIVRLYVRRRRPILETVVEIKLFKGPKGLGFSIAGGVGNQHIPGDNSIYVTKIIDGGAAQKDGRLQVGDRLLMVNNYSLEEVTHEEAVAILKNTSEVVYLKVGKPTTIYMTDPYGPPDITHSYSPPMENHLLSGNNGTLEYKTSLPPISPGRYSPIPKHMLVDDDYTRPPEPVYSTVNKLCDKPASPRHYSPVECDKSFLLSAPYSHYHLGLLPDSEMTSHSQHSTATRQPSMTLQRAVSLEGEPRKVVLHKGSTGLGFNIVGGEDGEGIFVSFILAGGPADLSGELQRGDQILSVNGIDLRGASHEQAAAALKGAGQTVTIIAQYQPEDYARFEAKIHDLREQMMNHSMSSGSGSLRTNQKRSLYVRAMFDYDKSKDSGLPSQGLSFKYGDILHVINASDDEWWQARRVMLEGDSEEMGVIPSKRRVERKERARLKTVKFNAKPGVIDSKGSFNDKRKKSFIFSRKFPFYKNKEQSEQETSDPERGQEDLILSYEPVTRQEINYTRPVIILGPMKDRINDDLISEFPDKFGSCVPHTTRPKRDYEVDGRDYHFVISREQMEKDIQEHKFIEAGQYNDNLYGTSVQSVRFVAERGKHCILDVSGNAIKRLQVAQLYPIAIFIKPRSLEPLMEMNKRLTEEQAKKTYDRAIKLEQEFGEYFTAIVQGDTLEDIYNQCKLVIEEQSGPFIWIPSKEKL

What was measured:
Assay in all cases: log2 fold change, soluble protein after heating vs DMSO (PISA); higher = thermal stabilisation; K562 cells, 10 uM, 30 min; active = over 0.2 and 3.5 SD of the protein, either way, in both replicates (recomputed)
[1] = compound: NC(=O)Nc1cc(-c2cccc(F)c2)sc1C(=O)N[C@H]1CCCNC1
How it was run: (§1)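 K562 cells (2×10^6 cells/mL) were treated with 10 μM compound for 30 min, and aliquots were heated for 3 min over 48°C-58°C. Pooled aliquots were extracted in PBS with 0.5% NP-40 at 4°C, and the supernatant after 21,000xg for 90 min was measured by TMTpro 16plex LC-MS/MS with channel sums equalised. Reported thermal stability, relative to control samples and from duplicates, is a log2 fold change.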

[2] = compound: NC(=O)c1cnc(N[C@@H]2CCCC[C@@H]2N)nc1Nc1cccc(-n2nccn2)c1
How it was run: as §1

[3] = compound: NC1(c2ccc(-c3nc4ccn5c(=O)[nH]nc5c4cc3-c3ccccc3)cc2)CCC1
How it was run: as §1

[4] = compound: NCC(=O)Nc1ccc(-n2nc(C(F)(F)F)cc2-c2ccc3c(ccc4ccccc43)c2)cc1
How it was run: as §1

entinostat = compound: Nc1ccccc1NC(=O)c1ccc(CNC(=O)OCc2cccnc2)cc1 [entinostat]
How it was run: as §1

vorinostat = compound: O=C(CCCCCCC(=O)Nc1ccccc1)NO [vorinostat]
How it was run: as §1

citarinostat = compound: O=C(CCCCCCNC(=O)c1cnc(N(c2ccccc2)c2ccccc2Cl)nc1)NO [citarinostat]
How it was run: as §1

silmitasertib = compound: O=C(O)c1ccc2c(c1)nc(Nc1cccc(Cl)c1)c1ccncc12 [silmitasertib]
How it was run: as §1

[5] = compound: O=C1NC(=O)C(c2cnc3ccccn23)=C1c1cn2c3c(cc(F)cc13)CN(C(=O)N1CCCCC1)CC2
How it was run: as §1

[6] = compound: c1cc(OCCN2CCCCC2)cc(-c2n[nH]c3ccc(-c4nnc[nH]4)cc23)c1
How it was run: as §1

Measured: log2 fold change

DHDDS isoform 2 (UniProt Q86SQ9)
inactive: [1] 0.009 | [2] -0.003 | [3] 0.033 | [4] -0.042 | entinostat 0.003 | vorinostat -0.039 | citarinostat -0.005 | silmitasertib -0.042 | [5] 0.064 | [6] 0.003

DIS3L (UniProt Q8TF46)
inactive: [1] 0.043 | [2] -0.137 | [3] 0.091 | [4] 0.104 | entinostat -0.05 | citarinostat -0.169 | silmitasertib 0.112 | [5] -0.007 | [6] 0.092

DDX6 (UniProt P26196)
inactive: [1] -0.155 | [2] -0.019 | [3] -0.012 | [4] -0.127 | entinostat -0.044 | vorinostat 0.022 | citarinostat 0.016 | silmitasertib -0.02 | [5] -0.018 | [6] -0.056

DHRS13 (UniProt Q6UX07)
inactive: [1] 0.182 | [2] -0.012 | [3] 0.102 | [4] 0.156 | entinostat 0.043 | vorinostat -0.013 | citarinostat 0.1 | silmitasertib 0.087 | [6] -0.06

DDX11 (UniProt Q96FC9)
inactive: [1] -0.1 | [2] -0.099 | [3] -0.061 | [4] 0.032 | entinostat -0.009 | silmitasertib 0.191 | [5] -0.007

DGKE (UniProt P52429)
inactive: [1] 0.117 | [2] -0.032 | [3] -0.308 | entinostat 0.005 | silmitasertib 0.023

DDX18 (UniProt Q9NVP1)
inactive: [1] -0.037 | [2] -0.03 | [3] 0.255 | entinostat 0.029 | vorinostat 0.09 | citarinostat -0.072 | silmitasertib 0.155 | [6] -0.4

DECR2 (UniProt Q9NUI1)
inactive: [1] -0.041 | [2] 0.023 | [3] -0.139 | [4] -0.099 | entinostat -0.001 | vorinostat 0.019 | citarinostat -0.038 | silmitasertib 0.019 | [5] -0.057 | [6] 0.292

DDX17 (UniProt Q92841)
inactive: [1] -0.05 | [2] 0.013 | [3] -0.071 | [4] -0.069 | entinostat 0.024 | vorinostat 0.036 | citarinostat 0.035 | silmitasertib -0.039 | [5] -0.083 | [6] -0.072

DDX20 (UniProt Q9UHI6)
inactive: [1] 0.14 | [2] 0.096 | [3] -0.047 | entinostat 0.039 | vorinostat 0.123 | citarinostat -0.083 | silmitasertib 0.081 | [5] 0.275 | [6] -0.093

DERL2 (UniProt Q9GZP9)
inactive: [1] -0.058 | [2] 0.049 | [3] 0.064 | [4] -0.071 | entinostat 0.045 | vorinostat -0.077 | silmitasertib 0.027 | [5] 0.238

DHRS2 (UniProt Q13268)
inactive: [1] -0.027 | [2] 0.026 | [3] -0.014 | [4] 0.091 | entinostat 0.022 | vorinostat 0.003 | citarinostat 0.045 | silmitasertib 0.019 | [5] 0.045 | [6] -0.018

DNAH8 (UniProt Q96JB1)
inactive: [1] -0.122 | [2] -0.076 | [3] -0.039 | [4] 0.037 | entinostat -0.013 | citarinostat -0.028 | silmitasertib 0.183 | [5] -0.104 | [6] 0.404

DFFA (UniProt O00273)
inactive: [1] 0.024 | [2] -0.034 | [3] 0.03 | [4] 0.024 | entinostat 0.024 | vorinostat -0.008 | citarinostat -0.025 | silmitasertib -0.014 | [5] -0.023 | [6] 0.005

DDX47 (UniProt Q9H0S4)
inactive: [1] 0.087 | [2] 0.298 | [3] 0.173 | [4] -0.156 | entinostat -0.021 | silmitasertib 0.061 | [5] 0.134

DENND1B (UniProt Q6P3S1)
inactive: [1] -0.152 | [2] -0.05 | [3] -0.703 | [4] 0.11 | entinostat -0.152 | citarinostat -0.125 | silmitasertib 0.467 | [5] -0.17 | [6] 0.013

DDX19A (UniProt Q9NUU7)
inactive: [1] 0.044 | [2] 0.005 | [3] -0.06 | [4] 0.009 | entinostat 0.038 | vorinostat 0.027 | citarinostat 0.027 | silmitasertib -0.017 | [5] -0.07 | [6] -0.068

Fetched one by one from the list above (two):
DFFA (UniProt O00273)
inactive: [1] 0.024 | [2] -0.034 | [3] 0.03 | [4] 0.024 | entinostat 0.024 | vorinostat -0.008 | citarinostat -0.025 | silmitasertib -0.014 | [5] -0.023 | [6] 0.005

DENND1B (UniProt Q6P3S1)
inactive: [1] -0.152 | [2] -0.05 | [3] -0.703 | [4] 0.11 | entinostat -0.152 | citarinostat -0.125 | silmitasertib 0.467 | [5] -0.17 | [6] 0.013

Next records follow.

DIMT1 (UniProt Q9UNQ2)
inactive: [1] 0.056 | [2] 0.107 | [3] 0.27 | [4] 0.094 | entinostat -0.027 | vorinostat 0.004 | citarinostat -0.091 | silmitasertib 0.086 | [5] 0.196 | [6] -0.149

DIPK2A (UniProt Q8NDZ4)
inactive: [1] 0.018 | [2] 0.029 | [4] -0.035 | entinostat -0.126

DICER1 (UniProt Q9UPY3)
inactive: [1] -0.166 | [2] -0.082 | [3] -0.09 | [4] 0.078 | entinostat 0.075 | vorinostat 0.085 | silmitasertib 0.119 | [5] 0.133

DGUOK (UniProt Q16854)
inactive: [1] 0.024 | [2] 0.028 | [3] 0.054 | [4] -0.043 | entinostat -0.034 | vorinostat -0.014 | citarinostat 0.024 | silmitasertib -0.009 | [5] -0.072 | [6] -0.043

DMXL1 (UniProt Q9Y485)
inactive: [1] -0.026 | [2] -0.075 | [3] -0.052 | [4] -0.015 | entinostat 0.033 | vorinostat 0.069 | citarinostat 0.005 | silmitasertib 0.04 | [5] -0.007 | [6] -0.071

DDB2 (UniProt Q92466)
inactive: [1] 0.164 | [2] 0.071 | [3] 0.056 | [4] -0.092 | entinostat -0.098 | vorinostat 0.147 | silmitasertib -0.08 | [5] -0.036

DENND10 (UniProt Q8TCE6)
inactive: [1] 0.018 | [2] 0 | [3] -0.089 | [4] -0.069 | entinostat -0.076 | citarinostat 0.07 | silmitasertib 0.037 | [5] 0.073 | [6] 0.054

DLG3 (UniProt Q92796)
inactive: [1] -0.037 | [2] 0.028 | [3] -0.081 | [4] 0.052 | entinostat -0.009 | vorinostat 0.054 | silmitasertib -0.034 | [5] 0.031

DLG2 isoform 2 (UniProt Q15700)
inactive: [1] -0.057 | [2] 0.082 | [3] -0.089 | [4] -0.131 | entinostat 0.004 | vorinostat -0.101 | citarinostat -0.046 | silmitasertib 0.043 | [5] -0.03 | [6] 0.043

DDX24 (UniProt Q9GZR7)
inactive: [1] 0.016 | [2] 0.155 | [3] -0.232 | [4] 0.416 | entinostat -0.087 | vorinostat -0.031 | silmitasertib 0.164 | [5] 0.169

DNA2 (UniProt P51530)
inactive: [1] 0.317 | [4] -0.071 | entinostat 0.017 | vorinostat -0.05 | citarinostat -0.021 | [5] 0.093 | [6] -0.126

DNAH5 (UniProt Q8TE73)
inactive: [1] -0.029 | [3] -0.077 | [4] 0.016 | entinostat -0.037 | vorinostat -0.103 | citarinostat 0.047 | silmitasertib 0.001 | [5] 0.014 | [6] 0.029

DDX46, A0A0C4DG89
inactive: [3] -0.177 | silmitasertib -0.288 | [5] -0.148

DECR1 (UniProt E5RJD2)
inactive: [3] -0.075 | vorinostat -0.045 | silmitasertib -0.243

DLC1 (UniProt Q96QB1)
inactive: [3] 0.136 | [4] 0.002 | vorinostat -0.102 | citarinostat -0.101 | silmitasertib -0.03 | [5] -0.088 | [6] -0.052

DHX32 (UniProt Q7L7V1)
inactive: citarinostat 0.204 | [5] -0.163 | [6] -0.463
